Measurements reported in PMC10298792.
No constants are given. Whether binding was seen depends on the method and setting. Binding seen in cells or lysates may run through a third protein. Some results given as binding are weak or reduced against the parent protein; the word gives no strength. Where a sequence is shown, tags or fusion partners need not be part of it.

By UniProt entry, the sequences of proteins in these tests, tags left out.
UniProt Q07812: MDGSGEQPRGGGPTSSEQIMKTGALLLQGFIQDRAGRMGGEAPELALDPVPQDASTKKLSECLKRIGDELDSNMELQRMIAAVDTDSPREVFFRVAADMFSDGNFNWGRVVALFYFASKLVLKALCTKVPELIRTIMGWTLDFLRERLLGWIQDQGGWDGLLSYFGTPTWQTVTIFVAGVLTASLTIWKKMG

Target: T1, GFP-tagged full-length human Pxt1 (peroxisomal testis-specific 1) (human) (UniProt Q8NFP0)
T1 sequence: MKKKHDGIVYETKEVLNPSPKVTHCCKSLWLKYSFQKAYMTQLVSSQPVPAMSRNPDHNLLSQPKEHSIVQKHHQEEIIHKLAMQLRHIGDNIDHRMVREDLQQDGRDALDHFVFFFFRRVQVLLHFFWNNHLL
Experiment: co-IP; HeLa cells expressing GFP-tagged Pxt1 constructs with transiently expressed HA-Bak or HA-Bax, or with endogenous Bak/Bax; 20 μM z-VAD-fmk before transfection; lysis in 50 mM Tris–HCl pH 7.5, 150 mM NaCl, 0.5% Triton X-100, 1 mM EDTA; anti-GFP or anti-HA antibody overnight at 4°C, protein G agarose; immunoblotting

binding	Substance
binds	HA-tagged full-length Bax (Bcl-2-associated X), transiently expressed (from UniProt Q07812 1-192)
binds	endogenous Bax of HeLa cells (from UniProt Q07812 1-192)
